Source: PubChem BioAssay AID504764 (Drosophila RNAi Screening Center, 2011)
In all, the deposit lists about 22,000 reagents; this is an unselected part of those that have a named target and a result. In the full data, 403 (1.9%) got an active call. 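Unnormalised raw counts per well; ratio z-scores behind the hit calls and whether each hit raises or lowers signal are not deposited.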 The numbers tell different reagents against one gene apart. Reagent sequences are not shown. The record does not give: the amount of reagent.

Test: 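Genes whose knock-down alters Notch-dependent transcription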 (primary screen)
Cell system: Drosophila Kc167 cells
Reagents: long dsRNA against Drosophila genes
Time to read-out: about 5 days (4 days dsRNA, then 24 h after transfection)
Treatment: transfection of constitutively active membrane-tethered Notch lacking the extracellular domain, read 24 h later
Measured: 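Light from a Notch-responsive E(spl)m3 luciferase reporter under active Notch, with control-promoter and no-Notch reporter wells to normalise; raw counts from paired wells a and b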
Scale: induced reporter light, run 1, well a and induced reporter light, run 1, well b: higher = more light from the Notch target reporter with active Notch; control promoter light, run 1, well a and control promoter light, run 1, well b: higher = more light from the viral control promoter (cell number, transfection, viability); uninduced reporter light, run 1, well a: higher = more light from the Notch target reporter without active Notch
Hit rule: 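Wells with low control signal or poorly matching duplicates excluded; duplicates averaged; per source plate, z beyond ±2 for induced/control log2 ratio or beyond ±1.8 for induced/uninduced marks a hit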
Calls: active = modifier hit (raised or lowered Notch signal); inactive = not a hit

Silencing of CG3918 came out at: induced reporter light, run 1, well a = 11390; induced reporter light, run 1, well b = 12095; control promoter light, run 1, well a = 18295; control promoter light, run 1, well b = 17900; uninduced reporter light, run 1, well a = 2655; inactive.
Against Sf3b3, the values are induced reporter light, run 1, well a = 47555; induced reporter light, run 1, well b = 49200; control promoter light, run 1, well a = 78155; control promoter light, run 1, well b = 83130; uninduced reporter light, run 1, well a = 3055; inactive.
Knock-down of HemK1 resulted in: induced reporter light, run 1, well a = 1.84e5; induced reporter light, run 1, well b = 2.51e5; control promoter light, run 1, well a = 1.84e5; control promoter light, run 1, well b = 2.24e5; uninduced reporter light, run 1, well a = 17785; inactive.
Depletion of Dci resulted in: induced reporter light, run 1, well a = 1.97e5; induced reporter light, run 1, well b = 1.66e5; control promoter light, run 1, well a = 3.01e5; control promoter light, run 1, well b = 3.32e5; uninduced reporter light, run 1, well a = 13060; inactive.
With knock-down of mRpS18B, the screen gave induced reporter light, run 1, well a = 2.41e5; induced reporter light, run 1, well b = 2.14e5; control promoter light, run 1, well a = 2.43e5; control promoter light, run 1, well b = 2.68e5; uninduced reporter light, run 1, well a = 17460; inactive.
Pfdn4 scored induced reporter light, run 1, well a = 2.14e5; induced reporter light, run 1, well b = 2.21e5; control promoter light, run 1, well a = 3.34e5; control promoter light, run 1, well b = 1.82e5; uninduced reporter light, run 1, well a = 14870; inactive.
For CCT3 the deposit lists induced reporter light, run 1, well a = 1.91e5; induced reporter light, run 1, well b = 1.79e5; control promoter light, run 1, well a = 2.29e5; control promoter light, run 1, well b = 2.32e5; uninduced reporter light, run 1, well a = 14815; inactive.
Against CG42355, the entry reads induced reporter light, run 1, well a = 1.52e5; induced reporter light, run 1, well b = 1.40e5; control promoter light, run 1, well a = 1.47e5; control promoter light, run 1, well b = 1.49e5; uninduced reporter light, run 1, well a = 8650; inactive.
After knock-down of CG3703 #1, the record shows induced reporter light, run 1, well a = 1.23e5; induced reporter light, run 1, well b = 1.00e5; control promoter light, run 1, well a = 1.87e5; control promoter light, run 1, well b = 2.22e5; uninduced reporter light, run 1, well a = 8895; inactive.
For CG3703 #2, the entry reads induced reporter light, run 1, well a = 1.18e5; induced reporter light, run 1, well b = 1.14e5; control promoter light, run 1, well a = 2.11e5; control promoter light, run 1, well b = 1.71e5; uninduced reporter light, run 1, well a = 10555; inactive.
CG3703 #3 scored induced reporter light, run 1, well a = 85955; induced reporter light, run 1, well b = 94285; control promoter light, run 1, well a = 1.74e5; control promoter light, run 1, well b = 2.04e5; uninduced reporter light, run 1, well a = 7600; inactive.
Sdr showed induced reporter light, run 1, well a = 1.10e5; induced reporter light, run 1, well b = 1.11e5; control promoter light, run 1, well a = 81620; control promoter light, run 1, well b = 80600; uninduced reporter light, run 1, well a = 8920; inactive.

In a second layout: 2 of the entries above
target,dsRNA no.,"induced reporter light, run 1, well a","induced reporter light, run 1, well b","control promoter light, run 1, well a","control promoter light, run 1, well b","uninduced reporter light, run 1, well a",Call
CG3703,3,85955,94285,1.74e5,2.04e5,7600,inactive
Sdr,1,1.10e5,1.11e5,81620,80600,8920,inactive
